From article doi:10.1101/2023.08.10.552743 come the findings set out here.

Sequences of proteins named here, by UniProt entry; tags and fusion partners are left off.
UniProt Q9UL03: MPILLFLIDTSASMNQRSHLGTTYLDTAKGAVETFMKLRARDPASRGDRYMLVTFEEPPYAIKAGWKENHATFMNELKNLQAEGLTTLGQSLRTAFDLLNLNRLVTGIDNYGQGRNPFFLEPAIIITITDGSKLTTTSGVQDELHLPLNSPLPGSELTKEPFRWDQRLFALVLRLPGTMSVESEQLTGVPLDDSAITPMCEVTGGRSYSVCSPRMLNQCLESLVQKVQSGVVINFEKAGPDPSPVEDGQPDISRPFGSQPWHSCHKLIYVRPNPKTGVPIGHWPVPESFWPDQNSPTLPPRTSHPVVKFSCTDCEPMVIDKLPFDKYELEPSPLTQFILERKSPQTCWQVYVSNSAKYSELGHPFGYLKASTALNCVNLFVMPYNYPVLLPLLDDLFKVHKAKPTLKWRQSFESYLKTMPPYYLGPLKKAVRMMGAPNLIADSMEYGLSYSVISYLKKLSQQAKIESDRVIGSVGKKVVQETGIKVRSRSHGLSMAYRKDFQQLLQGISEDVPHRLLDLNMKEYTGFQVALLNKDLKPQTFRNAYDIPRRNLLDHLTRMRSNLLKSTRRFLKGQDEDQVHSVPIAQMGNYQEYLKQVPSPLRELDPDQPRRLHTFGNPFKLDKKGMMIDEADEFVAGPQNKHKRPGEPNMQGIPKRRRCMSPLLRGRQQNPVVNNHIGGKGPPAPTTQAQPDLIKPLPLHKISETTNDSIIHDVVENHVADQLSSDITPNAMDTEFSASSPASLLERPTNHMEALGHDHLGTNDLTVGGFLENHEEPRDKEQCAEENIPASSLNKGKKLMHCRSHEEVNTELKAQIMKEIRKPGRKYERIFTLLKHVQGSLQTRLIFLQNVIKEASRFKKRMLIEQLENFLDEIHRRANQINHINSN
UniProt Q5TA45: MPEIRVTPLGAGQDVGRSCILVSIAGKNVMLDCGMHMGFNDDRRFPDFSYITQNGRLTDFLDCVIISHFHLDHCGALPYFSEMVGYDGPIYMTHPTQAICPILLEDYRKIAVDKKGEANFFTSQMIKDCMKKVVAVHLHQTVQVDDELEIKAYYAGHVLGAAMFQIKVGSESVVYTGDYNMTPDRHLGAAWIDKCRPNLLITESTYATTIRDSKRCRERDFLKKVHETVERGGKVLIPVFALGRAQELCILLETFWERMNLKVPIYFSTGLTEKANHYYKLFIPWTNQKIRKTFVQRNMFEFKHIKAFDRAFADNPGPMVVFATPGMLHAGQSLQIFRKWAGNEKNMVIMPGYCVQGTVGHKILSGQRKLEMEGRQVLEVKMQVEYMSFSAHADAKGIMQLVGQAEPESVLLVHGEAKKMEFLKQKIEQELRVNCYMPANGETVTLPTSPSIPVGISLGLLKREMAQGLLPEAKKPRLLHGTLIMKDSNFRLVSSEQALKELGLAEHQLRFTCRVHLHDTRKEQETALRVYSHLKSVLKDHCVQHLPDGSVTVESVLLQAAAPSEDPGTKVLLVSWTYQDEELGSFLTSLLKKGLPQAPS
UniProt Q96HW7: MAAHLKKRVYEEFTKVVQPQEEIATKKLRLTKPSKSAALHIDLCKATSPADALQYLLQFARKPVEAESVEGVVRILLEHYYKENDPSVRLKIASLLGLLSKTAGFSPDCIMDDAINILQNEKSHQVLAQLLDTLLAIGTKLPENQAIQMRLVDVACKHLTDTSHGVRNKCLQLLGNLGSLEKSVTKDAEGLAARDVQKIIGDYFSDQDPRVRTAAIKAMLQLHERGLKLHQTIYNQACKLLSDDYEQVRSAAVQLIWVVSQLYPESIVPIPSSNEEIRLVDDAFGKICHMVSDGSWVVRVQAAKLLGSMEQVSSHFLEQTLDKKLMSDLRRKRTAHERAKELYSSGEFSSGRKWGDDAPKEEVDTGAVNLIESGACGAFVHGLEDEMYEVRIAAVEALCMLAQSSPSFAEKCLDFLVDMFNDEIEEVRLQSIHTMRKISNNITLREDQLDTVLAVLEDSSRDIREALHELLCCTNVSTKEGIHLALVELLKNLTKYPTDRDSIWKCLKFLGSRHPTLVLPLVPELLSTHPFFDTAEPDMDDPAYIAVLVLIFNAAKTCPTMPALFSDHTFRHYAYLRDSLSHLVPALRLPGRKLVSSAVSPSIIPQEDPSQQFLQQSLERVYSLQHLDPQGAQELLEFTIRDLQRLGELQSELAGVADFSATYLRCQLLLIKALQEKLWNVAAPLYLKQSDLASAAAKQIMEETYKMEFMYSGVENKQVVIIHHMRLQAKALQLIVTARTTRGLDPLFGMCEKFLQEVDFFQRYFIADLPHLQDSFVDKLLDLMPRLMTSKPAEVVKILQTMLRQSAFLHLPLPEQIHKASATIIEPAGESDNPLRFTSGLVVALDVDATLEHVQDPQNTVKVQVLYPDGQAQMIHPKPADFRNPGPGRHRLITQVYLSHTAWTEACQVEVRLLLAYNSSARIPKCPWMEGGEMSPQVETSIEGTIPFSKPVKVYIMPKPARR
UniProt Q9NV88: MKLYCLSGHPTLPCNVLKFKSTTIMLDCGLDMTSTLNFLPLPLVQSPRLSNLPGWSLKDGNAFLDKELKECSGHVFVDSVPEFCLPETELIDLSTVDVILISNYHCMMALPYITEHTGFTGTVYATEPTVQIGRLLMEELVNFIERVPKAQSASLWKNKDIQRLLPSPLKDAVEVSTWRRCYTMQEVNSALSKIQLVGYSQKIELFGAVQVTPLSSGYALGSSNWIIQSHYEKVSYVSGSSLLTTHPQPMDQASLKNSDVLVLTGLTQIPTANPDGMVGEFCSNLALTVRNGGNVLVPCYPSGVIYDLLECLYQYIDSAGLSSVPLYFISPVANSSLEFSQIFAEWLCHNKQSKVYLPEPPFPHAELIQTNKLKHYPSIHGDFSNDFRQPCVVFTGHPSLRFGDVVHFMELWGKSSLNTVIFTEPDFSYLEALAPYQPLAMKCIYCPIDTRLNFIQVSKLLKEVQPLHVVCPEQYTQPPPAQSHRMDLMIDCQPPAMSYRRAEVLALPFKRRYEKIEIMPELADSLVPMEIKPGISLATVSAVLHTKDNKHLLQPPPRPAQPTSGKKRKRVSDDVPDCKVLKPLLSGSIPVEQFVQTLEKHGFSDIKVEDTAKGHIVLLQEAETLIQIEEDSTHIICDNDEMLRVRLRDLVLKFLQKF

These are yes or no findings as the source states them, for the method shown. In cells and extracts the contact can be indirect. Some results given as binding are weak or reduced against the parent protein; the word gives no strength.

Among the targets are Flag-INTS6 (human) (UniProt Q9UL03); Flag-INTS11 (human) (UniProt Q5TA45); Flag-INTS4 (human) (UniProt Q96HW7).
What all share (experiment): co-IP
Experiment [1] has as its target T1, BRAT1 (endogenous, NT2) (human (endogenous in NT2)) (UniProt Q6PJG6).
T1 sequence: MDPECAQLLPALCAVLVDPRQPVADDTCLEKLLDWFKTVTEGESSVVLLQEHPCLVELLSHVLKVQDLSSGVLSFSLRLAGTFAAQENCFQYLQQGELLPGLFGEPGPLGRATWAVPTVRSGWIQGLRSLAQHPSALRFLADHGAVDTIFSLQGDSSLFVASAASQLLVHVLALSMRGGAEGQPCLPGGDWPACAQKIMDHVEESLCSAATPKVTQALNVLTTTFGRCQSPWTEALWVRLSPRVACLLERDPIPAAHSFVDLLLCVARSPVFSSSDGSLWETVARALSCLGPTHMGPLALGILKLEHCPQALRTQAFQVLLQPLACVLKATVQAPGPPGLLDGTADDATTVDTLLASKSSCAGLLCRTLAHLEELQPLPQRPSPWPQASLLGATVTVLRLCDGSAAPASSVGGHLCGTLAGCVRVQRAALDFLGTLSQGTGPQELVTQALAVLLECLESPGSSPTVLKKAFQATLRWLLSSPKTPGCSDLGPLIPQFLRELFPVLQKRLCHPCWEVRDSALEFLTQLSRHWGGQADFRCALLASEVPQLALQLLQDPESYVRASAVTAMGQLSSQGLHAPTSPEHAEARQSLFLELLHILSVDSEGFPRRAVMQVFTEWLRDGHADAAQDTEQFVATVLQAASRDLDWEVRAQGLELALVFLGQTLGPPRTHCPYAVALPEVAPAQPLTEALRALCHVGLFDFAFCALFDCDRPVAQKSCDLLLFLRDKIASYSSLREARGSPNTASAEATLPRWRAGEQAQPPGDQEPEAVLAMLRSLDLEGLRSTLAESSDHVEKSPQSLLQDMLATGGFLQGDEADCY

Experiment [2] addresses INTS9 (endogenous, NT2) (human (endogenous in NT2)) (UniProt Q9NV88).
In experiment [3] the target is INTS11 (endogenous, NT2) (human (endogenous in NT2)) (UniProt Q5TA45).

Consider “INTS11 (endogenous, NT2) (from UniProt Q5TA45 1-600)”, for which, in experiment [1], the binding entry is “binds”.
Consider “INTS9 (endogenous, NT2) (from UniProt Q9NV88 1-658)”, for which the binding entry in experiment [1] is “binds”.
Turning to “INTS4 (endogenous, NT2) (from UniProt Q96HW7 1-963)”, the binding result in experiment [2] is “binds”; in experiment [1], “no binding”.

B1: BRAT1 (endogenous, NT2) (protein, UniProt Q6PJG6-1 1-821)
chain: MDPECAQLLPALCAVLVDPRQPVADDTCLEKLLDWFKTVTEGESSVVLLQEHPCLVELLSHVLKVQDLSSGVLSFSLRLAGTFAAQENCFQYLQQGELLPGLFGEPGPLGRATWAVPTVRSGWIQGLRSLAQHPSALRFLADHGAVDTIFSLQGDSSLFVASAASQLLVHVLALSMRGGAEGQPCLPGGDWPACAQKIMDHVEESLCSAATPKVTQALNVLTTTFGRCQSPWTEALWVRLSPRVACLLERDPIPAAHSFVDLLLCVARSPVFSSSDGSLWETVARALSCLGPTHMGPLALGILKLEHCPQALRTQAFQVLLQPLACVLKATVQAPGPPGLLDGTADDATTVDTLLASKSSCAGLLCRTLAHLEELQPLPQRPSPWPQASLLGATVTVLRLCDGSAAPASSVGGHLCGTLAGCVRVQRAALDFLGTLSQGTGPQELVTQALAVLLECLESPGSSPTVLKKAFQATLRWLLSSPKTPGCSDLGPLIPQFLRELFPVLQKRLCHPCWEVRDSALEFLTQLSRHWGGQADFRCALLASEVPQLALQLLQDPESYVRASAVTAMGQLSSQGLHAPTSPEHAEARQSLFLELLHILSVDSEGFPRRAVMQVFTEWLRDGHADAAQDTEQFVATVLQAASRDLDWEVRAQGLELALVFLGQTLGPPRTHCPYAVALPEVAPAQPLTEALRALCHVGLFDFAFCALFDCDRPVAQKSCDLLLFLRDKIASYSSLREARGSPNTASAEATLPRWRAGEQAQPPGDQEPEAVLAMLRSLDLEGLRSTLAESSDHVEKSPQSLLQDMLATGGFLQGDEADCY
In the case of B1, the binding result in experiment [3] and in experiment [2] was “binds” in each case.

B2: BRAT1 (endogenous, HEK293T) (protein, UniProt Q6PJG6-1 1-821)
chain: MDPECAQLLPALCAVLVDPRQPVADDTCLEKLLDWFKTVTEGESSVVLLQEHPCLVELLSHVLKVQDLSSGVLSFSLRLAGTFAAQENCFQYLQQGELLPGLFGEPGPLGRATWAVPTVRSGWIQGLRSLAQHPSALRFLADHGAVDTIFSLQGDSSLFVASAASQLLVHVLALSMRGGAEGQPCLPGGDWPACAQKIMDHVEESLCSAATPKVTQALNVLTTTFGRCQSPWTEALWVRLSPRVACLLERDPIPAAHSFVDLLLCVARSPVFSSSDGSLWETVARALSCLGPTHMGPLALGILKLEHCPQALRTQAFQVLLQPLACVLKATVQAPGPPGLLDGTADDATTVDTLLASKSSCAGLLCRTLAHLEELQPLPQRPSPWPQASLLGATVTVLRLCDGSAAPASSVGGHLCGTLAGCVRVQRAALDFLGTLSQGTGPQELVTQALAVLLECLESPGSSPTVLKKAFQATLRWLLSSPKTPGCSDLGPLIPQFLRELFPVLQKRLCHPCWEVRDSALEFLTQLSRHWGGQADFRCALLASEVPQLALQLLQDPESYVRASAVTAMGQLSSQGLHAPTSPEHAEARQSLFLELLHILSVDSEGFPRRAVMQVFTEWLRDGHADAAQDTEQFVATVLQAASRDLDWEVRAQGLELALVFLGQTLGPPRTHCPYAVALPEVAPAQPLTEALRALCHVGLFDFAFCALFDCDRPVAQKSCDLLLFLRDKIASYSSLREARGSPNTASAEATLPRWRAGEQAQPPGDQEPEAVLAMLRSLDLEGLRSTLAESSDHVEKSPQSLLQDMLATGGFLQGDEADCY
Consider B2, for which the binding result is listed as “no binding” in the experiment with Flag-INTS6 (human), “binds” with Flag-INTS11 (human) and “no binding” in the experiment with Flag-INTS4 (human).
